# According to PubChem BioAssay (NCATS):
# The shares of active, inactive and inconclusive entries below differ from those in the screen. For some assays here: Potencies beside an inconclusive call are fits to weak or partial responses and may not hold up. Active and inactive are the calls of the source. The call rests on the fitted dose curve; in most records, active means well fitted curve in the direction sought with a large enough effect; inconclusive means small, poorly fitted or top-dose-only effect, or another doubt; inactive means no such curve, though single readings can be large; an effect the other way counts as inactive or inconclusive.
# Columns and labels:
# [1] = qHTS of pediatric cancer cell lines to identify multiple opportunities for drug repurposing: Confirmatory screen for TC32 cells (AID 1347118);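 further: cells exposed to compound for 48 h before the read; nearly all actives have a fitted effect of over 65% in size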; on activity change, negative = cytotoxicity: on the % scale 0 is the no-effect control and ±100 the full control effect
# Procedure, shortened: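 TC32 cells, 500-1,000/well in growth medium, compound-treated 48 h at 37 °C; viability from CellTiter-Glo luminescence. Primary screen: MIPE 11-point (0.78 nM–46 µM final), NPC 8-point (0.59 nM–46 µM final); confirmatory at 11-point dilutions.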
# [2] = qHTS of pediatric cancer cell lines to identify multiple opportunities for drug repurposing: Confirmatory screen for control Hh wild type fibroblast cells (AID 1347121); further: nearly all actives have a fitted effect of over 70% in size
# Procedure, shortened: (§1)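 Viability after 48 h compound treatment at 37C, 500-1,000 cells/well, read as ATP luminescence with CellTiter-Glo. Primary screens used 11-point (MIPE, 0.78 nM-46 µM) or 8-point (NPC, 0.59 nM-46 µM) final concentrations; follow-up screens used 11-point dilutions.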
# [3] = qHTS of pediatric cancer cell lines to identify multiple opportunities for drug repurposing: Confirmatory screen for Rh41 cells (AID 1347123);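 further: 48 h compound exposure; nearly all actives have a fitted effect of over 60% in size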
# Procedure, shortened: as §1
# [4] = qHTS of pediatric cancer cell lines to identify multiple opportunities for drug repurposing: Confirmatory screen for RD cells (AID 1347124); conditions: RD rhabdomyosarcoma cell viability; activity change, negative = cytotoxic: at 45.9 µM (top of the series);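 further: cells exposed to compound for 48 h before viability readout; nearly all actives have a fitted effect of over 65% in size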; on activity change, negative = cytotoxic: on the % scale 0 is the no-effect control and ±100 the full control effect
# Procedure, shortened: as §1
# [5] = qHTS of pediatric cancer cell lines to identify multiple opportunities for drug repurposing: Confirmatory screen for Rh18 cells (AID 1347125); conditions: Rh18 rhabdomyosarcoma cells, viability; activity change, negative = cytotoxic: at 45.9 µM (top of the series); further: nearly all actives have a fitted effect of over 55% in size; on activity change, negative = cytotoxic: on the % scale 0 is the no-effect control and ±100 the full control effect
# Procedure, shortened: as §1
# [6] = qHTS of pediatric cancer cell lines to identify multiple opportunities for drug repurposing: Confirmatory screen for Rh30 cells (AID 1347126); further: nearly all actives have a fitted effect of over 55% in size; on activity change, negative = cytotoxic: on the % scale 0 is the no-effect control and ±100 the full control effect
# Procedure, shortened: as §1
# [7] = qHTS of pediatric cancer cell lines to identify multiple opportunities for drug repurposing: Confirmatory screen for Saos-2 cells (AID 1347127); further: nearly all actives have a fitted effect of over 60% in size;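 on activity change, negative = cytotoxic: plate controls were DMSO for no effect and bortezomib for full effect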
# Procedure, shortened: as §1
# [8] = qHTS of pediatric cancer cell lines to identify multiple opportunities for drug repurposing: Confirmatory screen for U-2 OS cells (AID 1347122); further: nearly all actives have a fitted effect of over 65% in size
# Procedure, shortened: as §1
# [9] = qHTS of pediatric cancer cell lines to identify multiple opportunities for drug repurposing: Confirmatory screen for MG 63 (6-TG R) cells (AID 1347119); conditions: MG-63 (6-TG resistant) osteosarcoma viability; activity change, negative = cytotoxicity: at 45.9 µM (top of the series); further: nearly all actives have a fitted effect of over 55% in size;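 on activity change, negative = cytotoxicity: plate controls were DMSO neutral control for no effect and bortezomib for full effect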
# Procedure, shortened: as §1
# Potency means the concentration at half of the fitted maximal effect.
structure (smiles),measurement,setting,value
CC(=O)OCC(=O)[C@@]12N=C(C)O[C@@H]1C[C@H]1[C@@H]3CCC4=CC(=O)C=C[C@]4(C)[C@H]3[C@@H](O)C[C@@]12C,Potency,[1],active: 0.369 µM
same,Potency,[2],"inconclusive: 1.31 µM [cytotoxic, single point]"
same,Potency,[3],"inconclusive: 26.1 µM [cytotoxic, single point]"
same,Potency,[4],"inconclusive: 0.737 µM [cytotoxic, full curve, poor fit]"
same,Potency,[5],"inconclusive: 26.1 µM [cytotoxic, single point]"
same,Potency,[6],"inconclusive: 26.1 µM [cytotoxic, single point]"
CNC(=O)c1ccc(N2C(=S)N(c3cnc(C#N)c(C(F)(F)F)c3)C(=O)C23CCC3)cc1F,Potency,[1],inactive
same,Potency,[4],inactive
same,Potency,[7],inactive
CS[C@H]1SC[C@@H]2C(=O)N(C)[C@H](C(C)C)C(=O)OC[C@H](NC(=O)c3cnc4ccccc4n3)C(=O)N[C@H](C)C(=O)N(C)[C@@H]1C(=O)N(C)[C@H](C(C)C)C(=O)OC[C@H](NC(=O)c1cnc3ccccc3n1)C(=O)N[C@H](C)C(=O)N2C,Potency,[1],"inconclusive: 0.0037 µM [cytotoxic, full curve, poor fit]"
same,Potency,[8],active: 0.0208 µM
same,"activity change, negative = cytotoxic",[4],inconclusive: 9.93%
same,Potency,[5],inactive
same,Potency,[6],"inconclusive: 0.0104 µM [cytotoxic, full curve, poor fit]"
same,Potency,[7],inactive
CC(=O)O[C@]1(C(C)=O)CC[C@H]2[C@@H]3C[C@H](C)C4=CC(=O)CC[C@]4(C)[C@H]3CC[C@@]21C,Potency,[1],"inconclusive: 29.3 µM [cytotoxic, single point]"
same,Potency,[3],"inconclusive: 16.5 µM [cytotoxic, partial curve]"
same,Potency,[6],inactive
COc1ccc(-c2cc3c(C)nc(N)nc3n(C3CCC(OCCO)CC3)c2=O)cn1 (stereo unspecified),Potency,[1],"inconclusive: 18.5 µM [cytotoxic, partial curve, poor fit]"
same,Potency,[3],"inconclusive: 18.5 µM [cytotoxic, partial curve]"
same,Potency,[4],inactive
same,Potency,[6],inactive
same,Potency,[7],inactive
CC1C(=O)OC2C(O)C34C5CC(C(C)(C)C)C36C(OC(=O)C6O)OC4(C(=O)O5)C12O (stereo unspecified),Potency,[1],inactive
same,Potency,[5],inactive
same,Potency,[6],"inconclusive: 13.1 µM [cytotoxic, partial curve, poor fit]"
same,Potency,[7],inactive
Cc1cc(CS(=O)(=O)c2ccccc2)cc(OCc2ccc(CN3CCC[C@H]3CO)cc2)c1,Potency,[1],"inconclusive: 20.8 µM [cytotoxic, partial curve]"
same,Potency,[4],inactive
same,Potency,[5],"inconclusive: 23.3 µM [cytotoxic, partial curve, poor fit]"
same,Potency,[6],inactive
same,Potency,[7],inactive
C#Cc1cccc(Nc2ncnc3cc(OCCOC)c(OCCOC)cc23)c1,Potency,[1],active: 14.7 µM
same,Potency,[9],active: 16.5 µM
same,Potency,[6],"inconclusive: 18.5 µM [cytotoxic, single point]"
same,Potency,[7],inactive
CC1=C(CC(=O)O)c2cc(F)ccc2C1=Cc1ccc(S(C)=O)cc1 (stereo unspecified),Potency,[1],inactive
same,Potency,[9],inactive
same,Potency,[7],inactive
N=C(N)c1ccc(OCCCCCOc2ccc(C(=N)N)cc2)cc1,Potency,[1],"inconclusive: 13.1 µM [cytotoxic, partial curve]"
same,Potency,[2],"inconclusive: 23.3 µM [cytotoxic, single point]"
same,Potency,[4],"inconclusive: 20.8 µM [cytotoxic, single point]"
same,Potency,[6],"inconclusive: 20.8 µM [cytotoxic, single point]"
same,Potency,[7],"inconclusive: 36.9 µM [cytotoxic, single point]"
CC(=O)Oc1ccc(C(c2ccc(OC(C)=O)cc2)c2ccccn2)cc1,Potency,[1],active: 6.57 µM
same,Potency,[7],inactive
Cc1nc2cnc3ccc(C#Cc4cccnc4)cc3c2n1-c1ccc(C(C)(C)C#N)cc1,Potency,[1],active: 0.676 µM
same,Potency,[2],"inconclusive: 0.339 µM [cytotoxic, full curve]"
O=C1Nc2ccc(I)cc2C1=Cc1cc(Br)c(O)c(Br)c1,Potency,[1],"inconclusive: 20.8 µM [cytotoxic, single point]"
same,Potency,[2],"inconclusive: 26.1 µM [rising, partial curve, poor fit]"
same,Potency,[4],inactive
CCOC(=O)[C@H](CCc1ccccc1)N[C@H]1CS[C@H](c2cccs2)CN(CC(=O)O)C1=O,Potency,[9],inactive
O=C(c1cc(Cc2n[nH]c(=O)c3ccccc23)ccc1F)N1CCN(C(=O)C2CC2)CC1,Potency,[1],inactive
same,Potency,[8],"inconclusive: 13.1 µM [cytotoxic, partial curve]"
same,Potency,[4],inactive
same,Potency,[5],inactive

# Three records drawn at random from those above:
structure (smiles),measurement,setting,value
CC(=O)O[C@]1(C(C)=O)CC[C@H]2[C@@H]3C[C@H](C)C4=CC(=O)CC[C@]4(C)[C@H]3CC[C@@]21C,Potency,[3],"inconclusive: 16.5 µM [cytotoxic, partial curve]"
CC1=C(CC(=O)O)c2cc(F)ccc2C1=Cc1ccc(S(C)=O)cc1 (stereo unspecified),Potency,[9],inactive
C#Cc1cccc(Nc2ncnc3cc(OCCOC)c(OCCOC)cc23)c1,Potency,[7],inactive
